Results are given in words; binding and its absence hold for the method and conditions named. Binding seen in cells or lysates may run through a third protein. Some results given as binding are weak or reduced against the parent protein; the word gives no strength. For some assays here: Tags and fused reporters may be left off the sequences shown.
Legend:
[1] = target: T1, Recombinant glutathione S-transferase-USP21 (GST-USP21) (UniProt Q9UK80); test: pull-down; GST-USP21 from E. coli on glutathione Sepharose 4B beads, incubated with lysates of transfected HEK293T cells; washed three times with IP lysis buffer; western blot; only the target purified
T1 sequence: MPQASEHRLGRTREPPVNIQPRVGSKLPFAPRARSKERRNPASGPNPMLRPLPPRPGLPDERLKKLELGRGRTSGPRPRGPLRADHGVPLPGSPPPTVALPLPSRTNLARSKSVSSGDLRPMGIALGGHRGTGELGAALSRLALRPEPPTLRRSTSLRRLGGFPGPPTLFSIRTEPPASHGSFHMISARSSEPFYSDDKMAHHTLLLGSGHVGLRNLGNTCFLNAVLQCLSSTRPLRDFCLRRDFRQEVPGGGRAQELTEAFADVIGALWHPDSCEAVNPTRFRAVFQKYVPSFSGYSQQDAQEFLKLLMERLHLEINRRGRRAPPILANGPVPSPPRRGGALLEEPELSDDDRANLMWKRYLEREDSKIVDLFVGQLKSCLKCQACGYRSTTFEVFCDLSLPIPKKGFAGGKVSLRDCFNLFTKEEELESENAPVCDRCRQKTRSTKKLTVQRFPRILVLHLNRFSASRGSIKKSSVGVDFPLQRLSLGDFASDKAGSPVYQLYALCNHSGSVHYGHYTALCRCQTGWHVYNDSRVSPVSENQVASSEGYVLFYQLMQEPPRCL

Sequences of proteins named here, by UniProt entry; tags and fusion partners are left off.
UniProt P25490: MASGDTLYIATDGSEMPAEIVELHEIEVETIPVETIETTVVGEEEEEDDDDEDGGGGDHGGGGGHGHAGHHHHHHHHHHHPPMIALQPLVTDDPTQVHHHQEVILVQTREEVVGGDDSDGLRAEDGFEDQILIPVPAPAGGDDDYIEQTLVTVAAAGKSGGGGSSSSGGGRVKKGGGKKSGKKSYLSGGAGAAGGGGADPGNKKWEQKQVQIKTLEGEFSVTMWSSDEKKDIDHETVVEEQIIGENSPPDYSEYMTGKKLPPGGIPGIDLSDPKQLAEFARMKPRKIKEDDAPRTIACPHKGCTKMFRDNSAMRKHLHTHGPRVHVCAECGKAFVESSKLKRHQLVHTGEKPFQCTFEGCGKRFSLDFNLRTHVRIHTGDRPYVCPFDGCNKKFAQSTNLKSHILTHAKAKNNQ

[2] = target: T2, USP21 (human (endogenous in A549)) (UniProt Q9UK80); test: co-IP; A549 cell lysates in RIPA buffer with 10 mM N-ethylmaleimide and protease and phosphatase inhibitors; IP with anti-YY1 or anti-USP21 antibody and protein A-agarose beads, 1 h at 4 °C; western blot
T2 sequence: T1 sequence

Row | Substance | binding [1] | binding [2]
1 | YY1 in lysates of transfected HEK293T cells (from UniProt P25490 1-414) | binds | –
2 | Yin Yang-1 (YY1) (from UniProt P25490 1-414) | – | binds

Source: publication PMC7000404
